Laboratory results: patent US20210238265A1 (Biogen, published 2021)
These are yes or no findings as the source states them, for the method shown. Some entries that bind do so weakly or less than the wild type.

By UniProt entry, the sequences of proteins in these tests, tags left out. Where a name states a change or a piece, a line headed by the entry shows the natural chain unless it says otherwise.
UniProt P10636: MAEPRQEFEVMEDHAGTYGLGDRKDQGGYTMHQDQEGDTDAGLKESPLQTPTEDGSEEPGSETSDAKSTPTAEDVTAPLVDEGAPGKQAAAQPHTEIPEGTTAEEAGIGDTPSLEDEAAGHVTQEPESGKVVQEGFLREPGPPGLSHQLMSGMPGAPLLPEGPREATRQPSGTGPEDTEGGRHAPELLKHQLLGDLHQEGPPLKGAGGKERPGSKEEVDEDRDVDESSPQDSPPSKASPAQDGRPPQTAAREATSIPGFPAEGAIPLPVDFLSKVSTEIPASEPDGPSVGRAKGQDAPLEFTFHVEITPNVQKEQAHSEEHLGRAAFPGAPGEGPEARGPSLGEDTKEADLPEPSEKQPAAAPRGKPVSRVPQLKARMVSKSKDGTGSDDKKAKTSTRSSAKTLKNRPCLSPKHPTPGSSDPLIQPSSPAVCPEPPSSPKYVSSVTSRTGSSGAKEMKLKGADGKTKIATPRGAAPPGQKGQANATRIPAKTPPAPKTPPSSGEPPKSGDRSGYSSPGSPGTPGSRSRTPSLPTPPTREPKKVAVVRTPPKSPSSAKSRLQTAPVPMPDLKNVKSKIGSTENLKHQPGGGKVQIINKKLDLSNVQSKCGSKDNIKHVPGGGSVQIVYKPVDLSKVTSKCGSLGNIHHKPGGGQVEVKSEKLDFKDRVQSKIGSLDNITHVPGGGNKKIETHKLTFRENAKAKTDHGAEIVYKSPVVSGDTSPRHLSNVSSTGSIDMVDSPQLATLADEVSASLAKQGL

Columns and labels:
[1] = target: PHFTau extracted from AD brain (paired helical filaments containing pathologically phosphorylated tau filaments) (human) (UniProt P10636); test: Western blot
[2] = target: Human tau P301L (pathological tau aggregates in TauP301L transgenic mouse brain) (human) (UniProt P10636); test: immunohistochemistry on transgenic mouse brain sections
[3] = target: Human tau P301L (pathological tau aggregates in TauP301L transgenic mouse brain) (human) (UniProt P10636); test: immunohistochemistry (DAB) on transgenic mouse brain sections

B1: Recombinant human antibody NI-105.24B2 (antibody, V domains shown)
VH: QVQLVQSGAEVKKPGASVKVSCKASGYTFVNYIIHWVRQAPGQGLEWMGIINPNGGNTSYAEKFQARVTLTSDTSTSTVYMDLSSLTSEDTAVYYCAVLSPSNPWGQGTTVTVSS
VL: SYELTQPPSVSVSPGQTAGITCSGDALPKQFVYWYQKKPGQAPVLLIYKDTERPSRIPERFSGSTSGTTVALTINGVQAEDEADYYCQSADRSGALWVFGGGTKLTVL
binding [1]: binds

B2: Recombinant human antibody NI-105.4E4 (antibody, V domains shown)
VH: EVQLVESGGGLVQPGGSLKLSCAASGFNFNISAIHWVRQASGKGLEWVGRIRSKSHNYATLYAASLKGRFTLSRDDSRNTAYLQMSSLQTEDMAVYYCTVLSANYDTFDYWGQGTLVTVSS
VL: SYELTQPPSVSVSPGQTARISCFGDTLPKQYTYWYQQKPGQAPVLVIYKDTERPSGIPERFSGSSSGTTVTLTISGVQAEDEADYYCLSADNSATWVFGGGTKVTVL
binding [2]: binds
binding [3]: binds
